Measured values published in patent publication US20050233391A1.
No constants are given. Whether binding was seen depends on the method and setting. Some results given as binding are weak or reduced against the parent protein; the word gives no strength.

Protein sequences, listed by entry. Tags and fused reporters are not part of them. Lines headed by an entry give the natural chain unless they say otherwise; changes in a name come on top.
UniProt P26718: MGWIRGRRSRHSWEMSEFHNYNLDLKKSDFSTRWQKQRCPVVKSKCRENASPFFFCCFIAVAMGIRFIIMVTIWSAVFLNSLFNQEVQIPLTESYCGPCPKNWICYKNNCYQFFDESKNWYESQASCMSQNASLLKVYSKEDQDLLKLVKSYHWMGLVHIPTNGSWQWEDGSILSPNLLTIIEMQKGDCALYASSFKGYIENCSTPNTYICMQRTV

Target: NKG2D on T cells (human) (UniProt P26718)
Test: flow cytometry of T cells after addition of soluble MICA

- binding: binds
B1: purified recombinant soluble MICA (ligand)
chain: EPHSLRYNLTVLSWDGSVQSGFLAEVHLDGQPFLRYDRQKCRAKPQGQWAEDVLGNKTWDRETRDLTGNGKDLRMTLAHIKDQKEGLHSLQEIRVCEIHEDNSTRSSQHFYYDGELFLSQNVETEEWTVPQSSRAQTLAMNVRNFLKEDAMKTKTHYHAMHADCLQELRRYLESSVVLRRRVPPMVNVTRSEASEGNITVTCRASSFYPRNITLTWRQDGVSLSHDTQQWGDVLPDGNGTYQTWVATRICQGEEQRFTCYMEHSGNHSTHPVPSGKVLVLQSHW
